Results deposited as PubChem BioAssay AID1053209 (Peter MacCallum Cancer Centre, 2014).

Screen: 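Knock-downs that sensitise mouse osteosarcoma cells to doxorubicin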 (follow-up of hits)
System: mouse primary osteosarcoma cells
Reagent: single siRNA against mouse genes, 25 nM (text also states 40 nM)
Timing: about 120 h (48 h before drug, then 72 h with drug)
Treatment: doxorubicin 100 nM (about IC30-40), added 48 h after transfection, for 72 h
Measured: 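ATP-based luminescent viability, with or without doxorubicin, relative to non-targeting control NT1, mean of two replicates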
Direction: viability with doxorubicin, vs NT1: higher = more viable cells under doxorubicin; viability ratio, doxorubicin over no drug: higher = less sensitisation to doxorubicin; viability without drug, vs NT1: higher = more viable cells without drug
Hit rule: 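Counted as active (class LC dox) if viability falls to 0.7 of NT1 or below under doxorubicin but stays within 0.7 to 1.1 without drug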
The whole screen tested about 1,580 reagents; shown is a random part of them. 207 of all reagents (13%) count as active. 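Rows are single siRNAs; four siRNAs per gene were tested, a gene counting as confirmed only when at least two agree.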 A number with no mark means an inactive call. The numbers tell different reagents against one gene apart.

gene | reagent | combined effect class | viability with doxorubicin, vs NT1 | viability ratio, doxorubicin over no drug | viability without drug, vs NT1
Psmd12 (GeneID 66997) | 1 | low viability only with doxorubicin; normal without drug (active) | 0.44 | 0.61 | 0.72
Psmd12 (GeneID 66997) | 2 | low viability only with doxorubicin; normal without drug (active) | 0.55 | 0.72 | 0.76
Psmd12 (GeneID 66997) | 3 | low viability with and without drug | 0.36 | 0.64 | 0.56
Psmd12 (GeneID 66997) | 4 | low viability only with doxorubicin; normal without drug (active) | 0.48 | 0.64 | 0.75
Krtap13-21 (GeneID 69696) | 1 | normal viability with and without drug | 0.86 | 0.91 | 0.94
Krtap13-21 (GeneID 69696) | 2 | low viability with and without drug | 0.38 | 0.66 | 0.58
Krtap13-21 (GeneID 69696) | 3 | normal viability with and without drug | 0.88 | 0.83 | 1.06
Krtap13-21 (GeneID 69696) | 4 | high viability only with doxorubicin | 1.17 | 1.19 | 0.98
Rpl38 (GeneID 67671) | 1 | normal viability with and without drug | 0.72 | 0.89 | 0.81
Rpl38 (GeneID 67671) | 2 | low viability with and without drug | 0.22 | 0.59 | 0.37
Rpl38 (GeneID 67671) | 3 | low viability with and without drug | 0.3 | 1.07 | 0.28
Rpl38 (GeneID 67671) | 4 | low viability with and without drug | 0.34 | 0.85 | 0.4
Rbm8a (GeneID 60365) | 1 | low viability with and without drug | 0.43 | 0.66 | 0.65
Rbm8a (GeneID 60365) | 2 | low viability only with doxorubicin; normal without drug (active) | 0.55 | 0.59 | 0.93
Rbm8a (GeneID 60365) | 3 | low viability with and without drug | 0.26 | 0.42 | 0.62
Rbm8a (GeneID 60365) | 4 | low viability only with doxorubicin; normal without drug (active) | 0.28 | 0.39 | 0.72
Txndc15 (GeneID 69672) | 1 | normal viability with and without drug | 0.98 | 1.07 | 0.92
Txndc15 (GeneID 69672) | 2 | normal viability with and without drug | 0.95 | 0.98 | 0.97
Txndc15 (GeneID 69672) | 3 | normal viability with and without drug | 0.86 | 0.92 | 0.93
Txndc15 (GeneID 69672) | 4 | normal viability with and without drug | 0.88 | 1 | 0.88
Ikzf1 (GeneID 22778) | 1 | normal viability with and without drug | 0.96 | 1.04 | 0.92
Ikzf1 (GeneID 22778) | 2 | normal viability with and without drug | 1.02 | 1.06 | 0.96
Ikzf1 (GeneID 22778) | 3 | normal viability with and without drug | 1.02 | 1.13 | 0.9
Ikzf1 (GeneID 22778) | 4 | normal viability with and without drug | 1.05 | 1.07 | 0.98
Magea6 (GeneID 17142) | 1 | normal viability with and without drug | 1 | 0.98 | 1.02
Magea6 (GeneID 17142) | 2 | normal viability with and without drug | 1.01 | 0.96 | 1.05
Magea6 (GeneID 17142) | 3 | normal viability with and without drug | 0.75 | 0.77 | 0.98
Magea6 (GeneID 17142) | 4 | normal viability with and without drug | 1.01 | 1.01 | 1
Snrnp40 (GeneID 66585) | 1 | normal viability with and without drug | 0.8 | 0.91 | 0.88
Snrnp40 (GeneID 66585) | 2 | high viability only with doxorubicin | 1.1 | 1.07 | 1.03
Snrnp40 (GeneID 66585) | 3 | normal viability with and without drug | 1.06 | 1.05 | 1.01
Snrnp40 (GeneID 66585) | 4 | normal viability with and without drug | 0.99 | 0.92 | 1.08
E2f1 (GeneID 13555) | 1 | normal viability with and without drug | 1.04 | 1.11 | 0.94
E2f1 (GeneID 13555) | 2 | high viability only with doxorubicin | 1.12 | 1.12 | 1
E2f1 (GeneID 13555) | 3 | normal viability with and without drug | 1.04 | 1.08 | 0.96
E2f1 (GeneID 13555) | 4 | normal viability with and without drug | 0.97 | 1.02 | 0.95
Polr2k (GeneID 17749) | 1 | low viability only with doxorubicin; normal without drug (active) | 0.7 | 0.71 | 0.98
Polr2k (GeneID 17749) | 2 | normal viability with and without drug | 0.82 | 1.01 | 0.81
Polr2k (GeneID 17749) | 3 | normal viability with and without drug | 0.92 | 0.96 | 0.96
Polr2k (GeneID 17749) | 4 | normal viability with and without drug | 0.86 | 0.9 | 0.96
B9d1 (GeneID 27078) | 1 | normal viability with and without drug | 1.06 | 1 | 1.06
B9d1 (GeneID 27078) | 2 | normal viability with and without drug | 1 | 0.98 | 1.02
B9d1 (GeneID 27078) | 3 | low viability with and without drug | 0.34 | 0.55 | 0.62
B9d1 (GeneID 27078) | 4 | normal viability with and without drug | 1.06 | 1.07 | 0.99
Psmb2 (GeneID 26445) | 1 | low viability with and without drug | 0.13 | 0.41 | 0.32
Psmb2 (GeneID 26445) | 2 | normal viability with and without drug | 0.8 | 0.91 | 0.88
Psmb2 (GeneID 26445) | 3 | low viability with and without drug | 0.35 | 0.54 | 0.65
Psmb2 (GeneID 26445) | 4 | normal viability with and without drug | 0.92 | 1.05 | 0.88
Tbl1xr1 (GeneID 81004) | 1 | normal viability with and without drug | 0.73 | 0.79 | 0.92
Tbl1xr1 (GeneID 81004) | 2 | normal viability with and without drug | 1.07 | 1.04 | 1.03
Tbl1xr1 (GeneID 81004) | 3 | normal viability with and without drug | 1.06 | 1.05 | 1.01
Tbl1xr1 (GeneID 81004) | 4 | normal viability with and without drug | 0.98 | 0.98 | 1
2210016L21Rik (GeneID 72357) | 1 | normal viability with and without drug | 0.95 | 0.95 | 1
2210016L21Rik (GeneID 72357) | 2 | low viability only with doxorubicin; normal without drug (active) | 0.48 | 0.57 | 0.84
2210016L21Rik (GeneID 72357) | 3 | normal viability with and without drug | 0.99 | 0.98 | 1.01
2210016L21Rik (GeneID 72357) | 4 | normal viability with and without drug | 0.98 | 1.05 | 0.93
Wee1 (GeneID 22390) | 1 | low viability only with doxorubicin; normal without drug (active) | 0.7 | 0.71 | 0.98
Wee1 (GeneID 22390) | 2 | high viability with and without drug | 1.13 | 1.01 | 1.12
Wee1 (GeneID 22390) | 3 | normal viability with and without drug | 0.82 | 0.98 | 0.84
Wee1 (GeneID 22390) | 4 | low viability with and without drug | 0.19 | 0.41 | 0.46
Smndc1 (GeneID 76479) | 1 | normal viability with and without drug | 1.02 | 1.13 | 0.9
Smndc1 (GeneID 76479) | 2 | high viability only with doxorubicin | 1.19 | 1.18 | 1.01
Smndc1 (GeneID 76479) | 3 | normal viability with and without drug | 0.94 | 1.07 | 0.88
Smndc1 (GeneID 76479) | 4 | normal viability with and without drug | 1.09 | 1.18 | 0.92
Tcl1b2 (GeneID 27381) | 1 | low viability with and without drug | 0.3 | 0.48 | 0.62
Tcl1b2 (GeneID 27381) | 2 | normal viability with and without drug | 0.9 | 0.9 | 1
Tcl1b2 (GeneID 27381) | 3 | normal viability with and without drug | 1.08 | 1.01 | 1.07
Tcl1b2 (GeneID 27381) | 4 | normal viability with and without drug | 0.98 | 0.94 | 1.04
Mrpl39 (GeneID 27393) | 1 | normal viability with and without drug | 0.76 | 0.92 | 0.83
Mrpl39 (GeneID 27393) | 2 | normal viability with and without drug | 0.92 | 0.91 | 1.01
Mrpl39 (GeneID 27393) | 3 | normal viability with and without drug | 0.97 | 0.94 | 1.03
Mrpl39 (GeneID 27393) | 4 | low viability only with doxorubicin; normal without drug (active) | 0.69 | 0.85 | 0.81
Timm44 (GeneID 21856) | 1 | normal viability with and without drug | 0.94 | 1 | 0.94
Timm44 (GeneID 21856) | 2 | normal viability with and without drug | 0.8 | 1.01 | 0.79
Timm44 (GeneID 21856) | 3 | normal viability with and without drug | 0.84 | 1.02 | 0.82
Timm44 (GeneID 21856) | 4 | normal viability with and without drug | 0.91 | 0.98 | 0.93

Hits, among the entries above:
gene | reagent | combined effect class | viability with doxorubicin, vs NT1 | viability ratio, doxorubicin over no drug | viability without drug, vs NT1
Psmd12 (GeneID 66997) | 1 | low viability only with doxorubicin; normal without drug (active) | 0.44 | 0.61 | 0.72
Psmd12 (GeneID 66997) | 2 | low viability only with doxorubicin; normal without drug (active) | 0.55 | 0.72 | 0.76
Psmd12 (GeneID 66997) | 4 | low viability only with doxorubicin; normal without drug (active) | 0.48 | 0.64 | 0.75
Rbm8a (GeneID 60365) | 2 | low viability only with doxorubicin; normal without drug (active) | 0.55 | 0.59 | 0.93
Rbm8a (GeneID 60365) | 4 | low viability only with doxorubicin; normal without drug (active) | 0.28 | 0.39 | 0.72
Polr2k (GeneID 17749) | 1 | low viability only with doxorubicin; normal without drug (active) | 0.7 | 0.71 | 0.98
2210016L21Rik (GeneID 72357) | 2 | low viability only with doxorubicin; normal without drug (active) | 0.48 | 0.57 | 0.84
Wee1 (GeneID 22390) | 1 | low viability only with doxorubicin; normal without drug (active) | 0.7 | 0.71 | 0.98
Mrpl39 (GeneID 27393) | 4 | low viability only with doxorubicin; normal without drug (active) | 0.69 | 0.85 | 0.81
